These are yes or no findings as the source states them, for the method shown. Blank lines part the entries; values can stand above or below the binder they belong to.
How the values were obtained:
Assay in all cases: SEC; Superdex 200 Increase GL 10/300 or Superdex 75 16/60 HR column, room temperature; columns calibrated with Bio-Rad SEC standards; molecular weights estimated from elution; both purified
[1] = molecular target: Recombinant truncated human wild-type tyrosinase (residues 19-469) (human) (UniProt P14679)
[2] = molecular target: Recombinant truncated human tyrosinase OCA1B mutant variant P406L (residues 19-469) (human) (UniProt P14679)
[3] = molecular target: Recombinant truncated human tyrosinase OCA1B mutant variant R422Q (residues 19-469) (human) (UniProt P14679)

binding [1]: no binding
B1: Recombinant truncated human wild-type tyrosinase (residues 19-469) (enzyme, UniProt P14679 19-469)
chain: HFPRACVSSKNLMEKECCPPWSGDRSPCGQLSGRGSCQNILLSNAPLGPQFPFTGVDDRESWPSVFYNRTCQCSGNFMGFNCGNCKFGFWGPNCTERRLLVRRNIFDLSAPEKDKFFAYLTLAKHTISSDYVIPIGTYGQMKNGSTPMFNDINIYDLFVWMHYYVSMDALLGGSEIWRDIDFAHEAPAFLPWHRLFLLRWEQEIQKLTGDENFTIPYWDWRDAEKCDICTDEYMGGQHPTNPNLLSPASFFSSWQIVCSRLEEYNSHQSLCNGTPEGPLRRNPGNHDKSRTPRLPSSADVEFCLSLTQYESGSMDKAANFSFRNTLEGFASPLTGIADASQSSMHNALHIYMNGTMSQVQGSANDPIFLLHHAFVDSIFEQWLRRHRPLQEVYPEANAPIGHNRESYMVPFIPLYRNGDFFISSKDLGYDYSYLQDSDPDSFQDYIKSYLE

binding [2]: no binding
B2: Recombinant truncated human tyrosinase OCA1B mutant variant P406L (residues 19-469) (enzyme, UniProt P14679 19-469)
chain: HFPRACVSSKNLMEKECCPPWSGDRSPCGQLSGRGSCQNILLSNAPLGPQFPFTGVDDRESWPSVFYNRTCQCSGNFMGFNCGNCKFGFWGPNCTERRLLVRRNIFDLSAPEKDKFFAYLTLAKHTISSDYVIPIGTYGQMKNGSTPMFNDINIYDLFVWMHYYVSMDALLGGSEIWRDIDFAHEAPAFLPWHRLFLLRWEQEIQKLTGDENFTIPYWDWRDAEKCDICTDEYMGGQHPTNPNLLSPASFFSSWQIVCSRLEEYNSHQSLCNGTPEGPLRRNPGNHDKSRTPRLPSSADVEFCLSLTQYESGSMDKAANFSFRNTLEGFASPLTGIADASQSSMHNALHIYMNGTMSQVQGSANDPIFLLHHAFVDSIFEQWLRRHRLLQEVYPEANAPIGHNRESYMVPFIPLYRNGDFFISSKDLGYDYSYLQDSDPDSFQDYIKSYLE

binding [3]: no binding
B3: Recombinant truncated human tyrosinase OCA1B mutant variant R422Q (residues 19-469) (enzyme, UniProt P14679 19-469)
chain: HFPRACVSSKNLMEKECCPPWSGDRSPCGQLSGRGSCQNILLSNAPLGPQFPFTGVDDRESWPSVFYNRTCQCSGNFMGFNCGNCKFGFWGPNCTERRLLVRRNIFDLSAPEKDKFFAYLTLAKHTISSDYVIPIGTYGQMKNGSTPMFNDINIYDLFVWMHYYVSMDALLGGSEIWRDIDFAHEAPAFLPWHRLFLLRWEQEIQKLTGDENFTIPYWDWRDAEKCDICTDEYMGGQHPTNPNLLSPASFFSSWQIVCSRLEEYNSHQSLCNGTPEGPLRRNPGNHDKSRTPRLPSSADVEFCLSLTQYESGSMDKAANFSFRNTLEGFASPLTGIADASQSSMHNALHIYMNGTMSQVQGSANDPIFLLHHAFVDSIFEQWLRRHRPLQEVYPEANAPIGHNQESYMVPFIPLYRNGDFFISSKDLGYDYSYLQDSDPDSFQDYIKSYLE
